Data on two molecules can be found in doi:10.1101/699223 (bioRxiv, 2019).

The target of assay [1] is T1, human BBS2 R632P, c-Myc-tagged (human, UniProt Q9BXC9 1-721, R632P).
T1 sequence (looked up): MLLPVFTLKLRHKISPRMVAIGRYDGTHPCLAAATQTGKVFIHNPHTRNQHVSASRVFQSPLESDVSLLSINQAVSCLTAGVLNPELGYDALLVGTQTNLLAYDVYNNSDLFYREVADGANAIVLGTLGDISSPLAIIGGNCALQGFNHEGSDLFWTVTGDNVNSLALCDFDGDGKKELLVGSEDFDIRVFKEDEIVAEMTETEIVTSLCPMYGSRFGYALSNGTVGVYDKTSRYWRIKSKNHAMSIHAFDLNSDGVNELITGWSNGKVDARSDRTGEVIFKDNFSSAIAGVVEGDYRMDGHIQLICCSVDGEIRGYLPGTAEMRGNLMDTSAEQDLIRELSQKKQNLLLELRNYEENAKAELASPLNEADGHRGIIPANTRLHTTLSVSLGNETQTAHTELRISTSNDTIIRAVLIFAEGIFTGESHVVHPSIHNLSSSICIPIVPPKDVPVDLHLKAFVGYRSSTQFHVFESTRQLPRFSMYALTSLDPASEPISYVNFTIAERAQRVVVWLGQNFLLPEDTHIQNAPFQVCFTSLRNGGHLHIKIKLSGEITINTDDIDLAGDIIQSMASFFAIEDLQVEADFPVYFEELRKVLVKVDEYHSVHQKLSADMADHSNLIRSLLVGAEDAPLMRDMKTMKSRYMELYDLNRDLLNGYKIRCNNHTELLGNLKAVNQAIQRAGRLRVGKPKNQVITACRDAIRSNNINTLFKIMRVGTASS
Put plainly: co-IP.

In assay [2] the target is T2, human BBS2 L349W, c-Myc-tagged (human, UniProt Q9BXC9 1-721, L349W).
T2 sequence (looked up): T1 sequence (looked up) with L349W, P632R
The assay can be described thus: co-IP.

Substitutions are numbered along the chain they refer to. No constants are given. Whether binding was seen depends on the method and setting. In cells and extracts the contact can be indirect. Some binding calls cover weakened binding; strength is not graded here. Where a sequence is shown, tags or fusion partners need not be part of it.

B1: human BBS7 (Bardet-Biedl syndrome protein 7), wild type, Flag-Strep-tagged (natural protein, UniProt Q8IWZ6 1-715, looked up)
chain: MDLILNRMDYLQVGVTSQKTMKLIPASRHRATQKVVIGDHDGVVMCFGMKKGEAAAVFKTLPGPKIARLELGGVINTPQEKIFIAAASEIRGFTKRGKQFLSFETNLTESIKAMHISGSDLFLSASYIYNHYCDCKDQHYYLSGDKINDVICLPVERLSRITPVLACQDRVLRVLQGSDVMYAVEVPGPPTVLALHNGNGGDSGEDLLFGTSDGKLALIQITTSKPVRKWEIQNEKKRGGILCIDSFDIVGDGVKDLLVGRDDGMVEVYSFDNANEPVLRFDQMLSESVTSIQGGCVGKDSYDEIVVSTYSGWVTGLTTEPIHKESGPGEELKINQEMQNKISSLRNELEHLQYKVLQERENYQQSSQSSKAKSAVPSFGINDKFTLNKDDASYSLILEVQTAIDNVLIQSDVPIDLLDVDKNSAVVSFSSCDSESNDNFLLATYRCQADTTRLELKIRSIEGQYGTLQAYVTPRIQPKTCQVRQYHIKPLSLHQRTHFIDHDRPMNTLTLTGQFSFAEVHSWVVFCLPEVPEKPPAGECVTFYFQNTFLDTQLESTYRKGEGVFKSDNISTISILKDVLSKEATKRKINLNISYEINEVSVKHTLKLIHPKLEYQLLLAKKVQLIDALKELQIHEGNTNFLIPEYHCILEEADHLQEEYKKQPAHLERLYGMITDLFIDKFKFKGTNVKTKVPLLLEILDSYDQNALISFFDAA
For the molecule B1, the binding result in assay [1] is recorded as “binds”.

B2: human BBS9 (Bardet-Biedl syndrome protein 9), wild type, Flag-tagged (natural protein, UniProt Q3SYG4 1-887, looked up)
chain: MSLFKARDWWSTILGDKEEFDQGCLCLANVDNSGNGQDKIIVGSFMGYLRIFSPHPAKTGDGAQAEDLLLEVDLRDPVLQVEVGKFVSGTEMLHLAVLHSRKLCVYSVSGTLGNVEHGNQCQMKLMYEHNLQRTACNMTYGSFGGVKGRDLICIQSMDGMLMVFEQESYAFGRFLPGFLLPGPLAYSSRTDSFLTVSSCQQVESYKYQVLAFATDADKRQETEQQKLGSGKRLVVDWTLNIGEQALDICIVSFNQSASSVFVLGERNFFCLKDNGQIRFMKKLDWSPSCFLPYCSVSEGTINTLIGNHNNMLHIYQDVTLKWATQLPHIPVAVRVGCLHDLKGVIVTLSDDGHLQCSYLGTDPSLFQAPNVQSRELNYDELDVEMKELQKIIKDVNKSQGVWPMTEREDDLNVSVVVSPNFDSVSQATDVEVGTDLVPSVTVKVTLQNRVILQKAKLSVYVQPPLELTCDQFTFEFMTPDLTRTVSFSVYLKRSYTPSELEGNAVVSYSRPTDRNPDGIPRVIQCKFRLPLKLICLPGQPSKTASHKITIDTNKSPVSLLSLFPGFASQSDDDQVNVMGFHFLGGARITVLASKTSQRYRIQSEQFEDLWLITNELILRLQEYFEKQGVKDFACSFSGSIPLQEYFELIDHHFELRINGEKLEELLSERAVQFRAIQRRLLARFKDKTPAPLQHLDTLLDGTYKQVIALADAVEENQGNLFQSFTRLKSATHLVILLIALWQKLSADQVAILEAAFLPLQEDTQELGWEETVDAAISHLLKTCLSKSSKEQALNLNSQLNIPKDTSQLKKHITLLCDRLSKGGRLCLSTDAAAPQTMVMPGGCTTIPESDLEERSVEQDSTELFTNHRHLTAETPRPEVSPLQGVSE
Turning to B2, the binding entry in assay [2] was “binds”.
